No constants are given. Whether binding was seen depends on the method and setting. Binding seen in cells or lysates may run through a third protein. These calls come from enrichment with a bait or labelling near it, and not all partners need be listed.
Target: myc-EXOSC3 (UniProt Q7TQK4)
Assay: affinity purification with mass spectrometry

The chains behind the UniProt entries cited, without tags or fusion partners.
UniProt Q7TQK4: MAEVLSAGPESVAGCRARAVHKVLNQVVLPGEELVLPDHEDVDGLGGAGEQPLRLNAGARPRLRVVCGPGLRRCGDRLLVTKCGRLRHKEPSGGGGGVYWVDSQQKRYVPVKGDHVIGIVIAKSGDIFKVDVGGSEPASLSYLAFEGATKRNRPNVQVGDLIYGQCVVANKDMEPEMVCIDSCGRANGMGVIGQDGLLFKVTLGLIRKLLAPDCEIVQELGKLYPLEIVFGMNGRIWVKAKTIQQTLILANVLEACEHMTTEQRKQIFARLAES
UniProt Q8VBV3: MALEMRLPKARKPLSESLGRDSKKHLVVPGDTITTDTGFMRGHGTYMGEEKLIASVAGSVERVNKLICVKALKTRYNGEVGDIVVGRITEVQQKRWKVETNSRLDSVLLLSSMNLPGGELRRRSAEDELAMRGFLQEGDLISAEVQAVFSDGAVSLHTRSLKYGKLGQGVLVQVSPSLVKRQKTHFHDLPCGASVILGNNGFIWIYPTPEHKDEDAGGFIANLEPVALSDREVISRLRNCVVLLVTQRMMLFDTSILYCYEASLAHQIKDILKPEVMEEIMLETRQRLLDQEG
UniProt Q9CRA8: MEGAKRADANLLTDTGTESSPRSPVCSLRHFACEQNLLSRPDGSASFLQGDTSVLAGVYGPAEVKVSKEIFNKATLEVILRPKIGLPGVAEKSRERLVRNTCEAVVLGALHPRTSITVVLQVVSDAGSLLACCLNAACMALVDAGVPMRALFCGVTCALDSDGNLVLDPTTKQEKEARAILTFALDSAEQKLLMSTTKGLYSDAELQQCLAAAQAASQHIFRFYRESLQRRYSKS
UniProt Q8BTW3: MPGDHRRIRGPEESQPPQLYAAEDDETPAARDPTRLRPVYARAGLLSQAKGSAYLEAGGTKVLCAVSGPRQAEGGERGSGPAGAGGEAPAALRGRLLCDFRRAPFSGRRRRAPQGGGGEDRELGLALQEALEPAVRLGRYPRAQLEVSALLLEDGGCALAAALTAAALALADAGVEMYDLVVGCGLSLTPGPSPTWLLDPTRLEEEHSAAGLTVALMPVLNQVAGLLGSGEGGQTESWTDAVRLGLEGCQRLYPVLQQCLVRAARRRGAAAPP
UniProt Q9D0M0: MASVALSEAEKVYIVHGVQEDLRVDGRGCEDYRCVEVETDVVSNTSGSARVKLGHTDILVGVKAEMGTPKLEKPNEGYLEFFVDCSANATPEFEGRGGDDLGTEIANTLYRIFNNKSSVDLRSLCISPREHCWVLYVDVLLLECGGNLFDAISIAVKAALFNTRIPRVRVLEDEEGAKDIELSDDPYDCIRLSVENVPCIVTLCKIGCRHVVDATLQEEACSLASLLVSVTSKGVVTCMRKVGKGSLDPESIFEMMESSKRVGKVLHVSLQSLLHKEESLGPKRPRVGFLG
UniProt Q9JHI7: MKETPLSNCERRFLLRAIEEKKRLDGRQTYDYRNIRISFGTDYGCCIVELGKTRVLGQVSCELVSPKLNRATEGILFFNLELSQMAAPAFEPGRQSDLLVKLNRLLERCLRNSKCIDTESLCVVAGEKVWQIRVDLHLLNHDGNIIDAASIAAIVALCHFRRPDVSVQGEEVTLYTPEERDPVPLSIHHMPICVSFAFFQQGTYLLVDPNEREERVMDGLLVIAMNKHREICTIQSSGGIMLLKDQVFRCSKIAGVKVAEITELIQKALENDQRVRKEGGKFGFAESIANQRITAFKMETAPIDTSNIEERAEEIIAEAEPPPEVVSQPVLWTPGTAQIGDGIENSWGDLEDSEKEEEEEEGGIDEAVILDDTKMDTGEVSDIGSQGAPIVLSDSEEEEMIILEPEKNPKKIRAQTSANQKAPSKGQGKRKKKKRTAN
UniProt Q80U78: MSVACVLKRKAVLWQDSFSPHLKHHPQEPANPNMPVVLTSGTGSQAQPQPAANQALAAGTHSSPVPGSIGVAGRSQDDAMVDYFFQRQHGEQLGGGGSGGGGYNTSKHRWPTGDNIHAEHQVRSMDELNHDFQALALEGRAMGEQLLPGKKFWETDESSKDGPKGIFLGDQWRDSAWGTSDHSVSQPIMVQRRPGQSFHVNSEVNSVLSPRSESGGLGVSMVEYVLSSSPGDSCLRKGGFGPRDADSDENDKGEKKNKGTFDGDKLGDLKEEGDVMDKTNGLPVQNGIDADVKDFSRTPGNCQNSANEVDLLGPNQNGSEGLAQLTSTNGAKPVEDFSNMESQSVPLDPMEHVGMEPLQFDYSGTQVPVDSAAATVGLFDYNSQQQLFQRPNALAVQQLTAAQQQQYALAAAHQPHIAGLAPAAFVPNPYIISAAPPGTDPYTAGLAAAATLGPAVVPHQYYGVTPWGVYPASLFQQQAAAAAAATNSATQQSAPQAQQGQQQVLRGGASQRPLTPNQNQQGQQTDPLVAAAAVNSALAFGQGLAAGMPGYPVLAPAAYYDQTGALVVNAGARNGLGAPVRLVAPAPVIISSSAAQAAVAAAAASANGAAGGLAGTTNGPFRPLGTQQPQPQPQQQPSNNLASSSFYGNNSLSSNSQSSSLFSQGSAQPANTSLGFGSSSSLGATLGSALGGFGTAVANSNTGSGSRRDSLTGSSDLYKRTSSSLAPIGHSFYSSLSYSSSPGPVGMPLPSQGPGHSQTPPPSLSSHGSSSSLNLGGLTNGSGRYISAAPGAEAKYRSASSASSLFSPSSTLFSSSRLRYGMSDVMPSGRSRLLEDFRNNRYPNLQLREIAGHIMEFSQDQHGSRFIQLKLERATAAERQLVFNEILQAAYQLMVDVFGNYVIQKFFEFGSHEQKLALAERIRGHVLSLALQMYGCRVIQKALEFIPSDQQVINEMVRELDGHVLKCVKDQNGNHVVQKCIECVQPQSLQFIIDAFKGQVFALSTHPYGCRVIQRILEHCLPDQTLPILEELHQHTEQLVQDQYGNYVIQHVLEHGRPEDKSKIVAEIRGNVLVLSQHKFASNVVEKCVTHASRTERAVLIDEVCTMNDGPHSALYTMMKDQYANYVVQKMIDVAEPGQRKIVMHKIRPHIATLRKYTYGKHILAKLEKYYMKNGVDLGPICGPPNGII
UniProt Q80U58: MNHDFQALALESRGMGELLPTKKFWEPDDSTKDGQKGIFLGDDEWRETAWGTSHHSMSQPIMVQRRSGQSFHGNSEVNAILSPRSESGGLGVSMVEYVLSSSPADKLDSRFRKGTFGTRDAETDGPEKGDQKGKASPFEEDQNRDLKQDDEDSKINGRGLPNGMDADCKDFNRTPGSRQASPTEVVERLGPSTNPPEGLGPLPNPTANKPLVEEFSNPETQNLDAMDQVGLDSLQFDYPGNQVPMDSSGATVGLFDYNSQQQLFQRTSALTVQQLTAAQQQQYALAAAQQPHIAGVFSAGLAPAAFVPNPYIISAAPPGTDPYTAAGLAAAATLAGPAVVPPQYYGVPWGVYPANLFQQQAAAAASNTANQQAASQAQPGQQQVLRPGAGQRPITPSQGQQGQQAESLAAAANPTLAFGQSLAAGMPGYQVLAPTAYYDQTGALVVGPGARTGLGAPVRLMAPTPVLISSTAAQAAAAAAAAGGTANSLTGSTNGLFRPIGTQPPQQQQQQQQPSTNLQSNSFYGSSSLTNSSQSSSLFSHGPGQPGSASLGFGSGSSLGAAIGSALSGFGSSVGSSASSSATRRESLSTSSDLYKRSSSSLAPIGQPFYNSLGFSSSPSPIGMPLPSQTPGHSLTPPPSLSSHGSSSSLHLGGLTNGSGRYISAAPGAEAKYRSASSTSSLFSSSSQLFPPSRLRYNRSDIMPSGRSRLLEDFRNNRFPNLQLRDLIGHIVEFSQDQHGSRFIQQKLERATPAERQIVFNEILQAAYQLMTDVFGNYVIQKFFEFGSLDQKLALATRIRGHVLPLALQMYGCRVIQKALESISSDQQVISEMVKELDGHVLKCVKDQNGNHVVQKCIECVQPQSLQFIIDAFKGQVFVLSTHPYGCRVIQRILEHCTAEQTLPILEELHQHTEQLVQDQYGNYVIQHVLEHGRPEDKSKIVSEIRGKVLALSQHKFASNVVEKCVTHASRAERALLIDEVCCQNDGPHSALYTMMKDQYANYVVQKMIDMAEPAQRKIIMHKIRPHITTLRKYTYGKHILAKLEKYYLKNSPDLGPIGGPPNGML

binding, binds:
EXOSC2 (from UniProt Q8VBV3 1-293), EXOSC5 (from UniProt Q9CRA8 1-235), EXOSC6 (from UniProt Q8BTW3 1-273), EXOSC7 (from UniProt Q9D0M0 1-291), EXOSC9 (from UniProt Q9JHI7 1-438), PUM1 (from UniProt Q80U78 1-1189), PUM2 (from UniProt Q80U58 1-1066)
